Experimental data: paper PMC10929186
No constants are given. Whether binding was seen depends on the method and setting. Binding seen in cells or lysates may run through a third protein. Some binding calls cover weakened binding; strength is not graded here.

Sequences of proteins named here, by UniProt entry; tags and fusion partners are left off.
UniProt P14602: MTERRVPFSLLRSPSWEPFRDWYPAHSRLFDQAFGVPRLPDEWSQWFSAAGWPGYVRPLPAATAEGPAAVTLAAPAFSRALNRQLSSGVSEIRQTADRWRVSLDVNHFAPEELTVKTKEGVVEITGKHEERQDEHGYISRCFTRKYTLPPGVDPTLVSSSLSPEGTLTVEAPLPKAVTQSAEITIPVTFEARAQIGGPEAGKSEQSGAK
UniProt P07356: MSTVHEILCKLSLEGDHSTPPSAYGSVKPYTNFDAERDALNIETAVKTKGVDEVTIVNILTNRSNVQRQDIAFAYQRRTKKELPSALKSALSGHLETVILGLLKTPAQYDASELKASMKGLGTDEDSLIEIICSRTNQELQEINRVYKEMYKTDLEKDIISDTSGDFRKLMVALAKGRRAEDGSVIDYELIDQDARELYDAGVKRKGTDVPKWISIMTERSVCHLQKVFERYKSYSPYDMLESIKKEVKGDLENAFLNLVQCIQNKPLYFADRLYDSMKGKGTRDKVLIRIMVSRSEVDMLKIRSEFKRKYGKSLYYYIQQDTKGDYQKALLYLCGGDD

Key:
[1] = target: T1, Prdx1 (mouse (endogenous in primary acinar cells and 266-6 cells)) (UniProt P35700); experiment: co-IP; endogenous proteins in 266-6 cells; anti-Hspb1 antibody (ctrl siRNA group) or anti-Prdx1 antibody (ctrl and Hspb1 KO cells), Western blot
T1 sequence: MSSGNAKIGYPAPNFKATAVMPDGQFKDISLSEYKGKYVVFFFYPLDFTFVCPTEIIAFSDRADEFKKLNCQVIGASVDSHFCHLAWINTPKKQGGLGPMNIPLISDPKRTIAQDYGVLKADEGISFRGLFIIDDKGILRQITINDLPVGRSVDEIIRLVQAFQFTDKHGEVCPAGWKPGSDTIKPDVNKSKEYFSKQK

[2] = target: Hspb1 (mouse (endogenous in primary acinar cells and 266-6 cells)) (UniProt P14602); experiment: co-IP; endogenous proteins in lysate of isolated primary acinar cells treated with 100 nM caerulein or PBS for 6 hours; anti-Hspb1 or anti-Anxa2 antibody, Protein A/G agarose beads, Western blot
His-tagged Hspb1 = His-tagged Hspb1 (UniProt P14602); experiment: co-IP; HEK293T cells cotransfected with His-Hspb1 and HA-Anxa2 (or HA-Anxa2 truncation mutants) for 48 hours; anti-His or anti-HA antibody, Western blot

| binding [1] | binding [2] | binding (His-tagged Hspb1) | Substance |
| --- | --- | --- | --- |
| binds | binds |  | Anxa2 (from UniProt P07356 1-339) |
|  |  | binds | HA-tagged Anxa2 (from UniProt P07356 1-339) |
